Measurements reported in PubChem BioAssay AID686938 (Drosophila RNAi Screening Center, 2013)

Screen: 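Fly genes required for calcium entry once internal stores are emptied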 (primary screen)
System: Drosophila S2R+ cells
Knock-down reagent: long dsRNA against Drosophila genes, about 0.25 µg dsRNA per well, roughly 10,000 cells
Duration: 5 days of knock-down before the calcium assay
Conditions: thapsigargin (SERCA pump blocker) to empty calcium stores; entry signal taken 4 min after adding it
Detection: 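Duplicate raw fluo-4 intensities per well from a plate reader, at rest and four minutes after thapsigargin emptied calcium stores; entry-to-rest ratio filled for only some wells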
Reading the numbers: calcium entry signal: higher = stronger calcium signal after store depletion; resting calcium signal: higher = higher resting calcium signal
Active means: 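Hit if the duplicate-averaged plate z-score for entry over resting signal is under −3; wells with weak total dye signal (Fmax z < −2) or more than 5 off-targets removed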
Calls: active = strongly reduced calcium entry; inactive = no strong reduction
The screen tested about 23,000 reagents; shown is an unselected part of those with a known target gene and a result. Over the whole deposit, 75 (0.33%) are marked active. 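Raw plate signals without normalisation; calls rest on plate z-scores that were not deposited; ratio present for only 364 wells.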 Entries without a mark were called inactive. Reagents against one gene are numbered here. Names joined by + are all predicted targets of the reagent. Reagent sequences are not shown. Not given: the dose of the treatment.

The first 7 records as a preview:
target gene,reagent no.,"calcium entry signal, replicate 1 (fluorescence units)","calcium entry signal, replicate 2 (fluorescence units)","resting calcium signal, replicate 1 (fluorescence units)","resting calcium signal, replicate 2 (fluorescence units)"
Vha36-2,1,2.53e7,4.19e7,1.40e7,1.89e7
Nelf-A,1,4.76e7,4.10e7,2.24e7,1.84e7
CG40485,1,3.72e7,3.00e7,2.02e7,1.60e7
LRP1,1,3.17e7,3.82e7,1.54e7,1.77e7
Adgf-A2,1,4.16e7,3.35e7,1.90e7,1.72e7
Rpp30,1,3.31e7,,1.80e7,
CG12912,1,1.98e7,4.12e7,1.28e7,1.87e7

The listing, from the first entry:
target gene,reagent no.,"calcium entry signal, replicate 1 (fluorescence units)","calcium entry signal, replicate 2 (fluorescence units)","resting calcium signal, replicate 1 (fluorescence units)","resting calcium signal, replicate 2 (fluorescence units)"
Vha36-2,1,2.53e7,4.19e7,1.40e7,1.89e7
Nelf-A,1,4.76e7,4.10e7,2.24e7,1.84e7
CG40485,1,3.72e7,3.00e7,2.02e7,1.60e7
LRP1,1,3.17e7,3.82e7,1.54e7,1.77e7
Adgf-A2,1,4.16e7,3.35e7,1.90e7,1.72e7
Rpp30,1,3.31e7,,1.80e7,
CG12912,1,1.98e7,4.12e7,1.28e7,1.87e7
Agpat3,1,4.15e7,4.95e7,1.86e7,3.21e7
gcm2,1,2.84e7,5.06e7,1.39e7,2.20e7
CG18493,1,3.39e7,3.98e7,4.59e7,1.73e7
CG16756,1,2.25e7,2.31e7,1.08e7,1.13e7
Acp98AB,1,1.93e7,6.61e7,9.97e6,2.91e7
Ist1,1,3.13e7,3.48e7,2.11e7,1.42e7
brn,1,5.99e7,5.60e7,2.61e7,2.42e7
prg,1,4.50e7,6.28e7,2.02e7,2.60e7
sbm,1,3.81e7,3.47e7,1.92e7,1.70e7
pirk,1,4.05e7,4.70e7,1.92e7,2.09e7
CG9400,1,2.91e7,3.59e7,1.44e7,1.59e7
CRMP,1,2.72e7,4.89e7,1.44e7,2.27e7
CRMP,2,3.04e7,3.58e7,1.35e7,1.54e7
CG32235,1,4.46e7,2.61e7,2.15e7,1.20e7
Plc21C,1,4.16e7,,1.67e7,
CG14971,1,4.67e7,3.97e7,2.76e7,1.58e7
naz,1,3.80e7,5.06e7,5.21e7,2.19e7
naz,2,3.74e7,4.22e7,4.44e7,1.92e7
CG31704,1,2.37e7,5.77e7,1.19e7,2.41e7
CG5493 + CG5327,1,5.02e7,5.90e7,2.23e7,2.69e7
Xbp1,1,6.13e7,3.34e7,2.88e7,1.65e7
Xbp1,2,3.73e7,3.71e7,2.00e7,1.66e7
CG32485,1,2.42e7,2.45e7,1.29e7,1.07e7
smal,1,3.45e7,2.17e7,1.76e7,1.16e7
smal,2,3.60e7,4.21e7,1.90e7,1.96e7
smal,3,3.82e7,4.12e7,1.79e7,1.80e7
smal,4,3.40e7,4.28e7,1.70e7,1.88e7
smal,5,1.85e7,4.06e7,1.05e7,1.87e7
CG14538 (retired record),1,2.57e7,3.81e7,1.12e7,1.66e7
CG13047,1,3.27e7,4.98e7,1.67e7,1.98e7
yps,1,3.18e7,4.88e7,1.58e7,2.27e7
Ae2,1,3.94e7,2.96e7,2.03e7,1.59e7
Ae2,2,5.39e7,3.74e7,3.48e7,1.54e7
CG9812,1,3.04e7,4.22e7,1.70e7,1.81e7
CG10177,1,3.51e7,4.71e7,1.83e7,1.86e7
hbt + CG43779,1,2.98e7,1.94e7,1.48e7,9.52e6
hbt + CG43779,2,5.21e7,3.67e7,2.62e7,1.54e7
dbr,1,3.83e7,,1.72e7,
Or88a,1,3.53e7,4.63e7,1.75e7,5.28e7
elm,1,2.87e7,3.81e7,1.31e7,1.66e7
CG3356,1,4.17e7,,2.18e7,
eya,1,4.76e7,,2.20e7,
CR43087 + CR43086 + CG34002,1,4.36e7,4.49e7,2.16e7,2.02e7
Acph-1,1,4.04e7,4.77e7,2.15e7,2.35e7
eIF2Bgamma,1,2.59e7,2.37e7,1.17e7,1.52e7
VGAT,1,4.29e7,3.43e7,2.30e7,1.52e7
crc,1,3.60e7,4.66e7,2.04e7,2.48e7
SPH93,1,4.62e7,2.97e7,2.04e7,1.38e7
CG33458,1,4.15e7,3.31e7,2.42e7,1.61e7
CG34409,1,3.72e7,3.95e7,1.91e7,1.91e7
CG34409,2,4.61e7,3.67e7,2.41e7,1.70e7
